Assay [1] deals with GST tagged vinculin tail domain (GST-Vt; residues 879–1,066) (human) (UniProt P18206). Briefly: pull-down; GST-Vt on GST-Sepharose beads, with or without PIP2; tail domains (MVt, MVt-ΔH1) or Vh2–Vh3 as negative control; SDS-PAGE and Western blot with HRP-conjugated αHis or αGST antibodies; both purified. A general note: Immunoblotting shows a protein as a band on a membrane.
Assay [2] deals with T1, full-length human metavinculin (residues 1–1,134) (human), P18206.
T1 chain: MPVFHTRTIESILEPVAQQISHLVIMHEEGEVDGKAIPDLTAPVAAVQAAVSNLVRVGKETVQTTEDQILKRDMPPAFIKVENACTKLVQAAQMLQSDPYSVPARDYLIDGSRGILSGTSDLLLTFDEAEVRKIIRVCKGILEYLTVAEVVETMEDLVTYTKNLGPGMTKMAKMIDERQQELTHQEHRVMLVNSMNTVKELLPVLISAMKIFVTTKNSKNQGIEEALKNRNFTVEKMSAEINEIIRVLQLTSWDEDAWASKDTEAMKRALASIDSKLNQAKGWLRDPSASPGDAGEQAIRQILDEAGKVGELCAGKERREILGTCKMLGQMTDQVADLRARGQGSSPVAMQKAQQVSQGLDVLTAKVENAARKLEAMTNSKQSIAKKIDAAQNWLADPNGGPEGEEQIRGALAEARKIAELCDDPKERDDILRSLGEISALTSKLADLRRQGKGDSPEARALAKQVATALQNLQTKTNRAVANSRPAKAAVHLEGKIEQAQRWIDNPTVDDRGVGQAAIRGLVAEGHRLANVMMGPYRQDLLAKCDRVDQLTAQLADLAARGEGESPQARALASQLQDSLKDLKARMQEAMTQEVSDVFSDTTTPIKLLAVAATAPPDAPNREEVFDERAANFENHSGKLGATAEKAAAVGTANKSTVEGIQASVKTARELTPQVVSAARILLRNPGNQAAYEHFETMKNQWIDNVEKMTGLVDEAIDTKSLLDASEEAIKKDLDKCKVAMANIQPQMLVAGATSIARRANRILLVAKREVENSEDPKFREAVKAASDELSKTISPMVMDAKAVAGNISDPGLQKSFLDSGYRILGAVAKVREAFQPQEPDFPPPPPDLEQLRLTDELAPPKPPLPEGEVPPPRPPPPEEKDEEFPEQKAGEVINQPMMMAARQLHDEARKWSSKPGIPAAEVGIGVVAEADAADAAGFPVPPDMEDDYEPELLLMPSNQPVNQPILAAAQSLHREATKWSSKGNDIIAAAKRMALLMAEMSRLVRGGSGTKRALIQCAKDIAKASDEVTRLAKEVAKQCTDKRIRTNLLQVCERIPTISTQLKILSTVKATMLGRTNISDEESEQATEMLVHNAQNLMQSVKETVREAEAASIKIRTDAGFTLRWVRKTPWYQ
The assay can be described thus: SEC; Hiload 26/60 Superdex 200 calibrated with molecular weight markers; without PIP2; both purified. The following applies: remark: other sources report otherwise. On the technique in general: Size exclusion chromatography separates by hydrodynamic size, large species first.

Assay [3] concerns the target T1, full-length human metavinculin …. The assay can be described thus: native gel or EMSA; native gel of the full-length proteins; for metavinculin-ΔH1′ and metavinculin-ΔH1ΔH1′ the peak fractions of each species from gel filtration; identities confirmed by Western blot; without PIP2; both purified. The following applies: remark: other sources report otherwise.

These are yes or no findings as the source states them, for the method shown.

As to “truncated vinculin head domain (Vh2–Vh3; residues 260–718) (from UniProt P18206 260-718) (domain or fragment)”, in assay [1], the binding entry was “no binding”.

B1: full-length human metavinculin (residues 1–1,134), P18206 1-1134 (protein)
chain: MPVFHTRTIESILEPVAQQISHLVIMHEEGEVDGKAIPDLTAPVAAVQAAVSNLVRVGKETVQTTEDQILKRDMPPAFIKVENACTKLVQAAQMLQSDPYSVPARDYLIDGSRGILSGTSDLLLTFDEAEVRKIIRVCKGILEYLTVAEVVETMEDLVTYTKNLGPGMTKMAKMIDERQQELTHQEHRVMLVNSMNTVKELLPVLISAMKIFVTTKNSKNQGIEEALKNRNFTVEKMSAEINEIIRVLQLTSWDEDAWASKDTEAMKRALASIDSKLNQAKGWLRDPSASPGDAGEQAIRQILDEAGKVGELCAGKERREILGTCKMLGQMTDQVADLRARGQGSSPVAMQKAQQVSQGLDVLTAKVENAARKLEAMTNSKQSIAKKIDAAQNWLADPNGGPEGEEQIRGALAEARKIAELCDDPKERDDILRSLGEISALTSKLADLRRQGKGDSPEARALAKQVATALQNLQTKTNRAVANSRPAKAAVHLEGKIEQAQRWIDNPTVDDRGVGQAAIRGLVAEGHRLANVMMGPYRQDLLAKCDRVDQLTAQLADLAARGEGESPQARALASQLQDSLKDLKARMQEAMTQEVSDVFSDTTTPIKLLAVAATAPPDAPNREEVFDERAANFENHSGKLGATAEKAAAVGTANKSTVEGIQASVKTARELTPQVVSAARILLRNPGNQAAYEHFETMKNQWIDNVEKMTGLVDEAIDTKSLLDASEEAIKKDLDKCKVAMANIQPQMLVAGATSIARRANRILLVAKREVENSEDPKFREAVKAASDELSKTISPMVMDAKAVAGNISDPGLQKSFLDSGYRILGAVAKVREAFQPQEPDFPPPPPDLEQLRLTDELAPPKPPLPEGEVPPPRPPPPEEKDEEFPEQKAGEVINQPMMMAARQLHDEARKWSSKPGIPAAEVGIGVVAEADAADAAGFPVPPDMEDDYEPELLLMPSNQPVNQPILAAAQSLHREATKWSSKGNDIIAAAKRMALLMAEMSRLVRGGSGTKRALIQCAKDIAKASDEVTRLAKEVAKQCTDKRIRTNLLQVCERIPTISTQLKILSTVKATMLGRTNISDEESEQATEMLVHNAQNLMQSVKETVREAEAASIKIRTDAGFTLRWVRKTPWYQ
For B1, the binding result in assay [2] and in assay [3] was “no binding” in each case.
